Laboratory results reported in PMC3036620.
Results are given in words; binding and its absence hold for the method and conditions named. In cells and extracts the contact can be indirect. Some results given as binding are weak or reduced against the parent protein; the word gives no strength.

By UniProt entry, the sequences of proteins in these tests, tags left out. Residues count along the entry.
UniProt P70336: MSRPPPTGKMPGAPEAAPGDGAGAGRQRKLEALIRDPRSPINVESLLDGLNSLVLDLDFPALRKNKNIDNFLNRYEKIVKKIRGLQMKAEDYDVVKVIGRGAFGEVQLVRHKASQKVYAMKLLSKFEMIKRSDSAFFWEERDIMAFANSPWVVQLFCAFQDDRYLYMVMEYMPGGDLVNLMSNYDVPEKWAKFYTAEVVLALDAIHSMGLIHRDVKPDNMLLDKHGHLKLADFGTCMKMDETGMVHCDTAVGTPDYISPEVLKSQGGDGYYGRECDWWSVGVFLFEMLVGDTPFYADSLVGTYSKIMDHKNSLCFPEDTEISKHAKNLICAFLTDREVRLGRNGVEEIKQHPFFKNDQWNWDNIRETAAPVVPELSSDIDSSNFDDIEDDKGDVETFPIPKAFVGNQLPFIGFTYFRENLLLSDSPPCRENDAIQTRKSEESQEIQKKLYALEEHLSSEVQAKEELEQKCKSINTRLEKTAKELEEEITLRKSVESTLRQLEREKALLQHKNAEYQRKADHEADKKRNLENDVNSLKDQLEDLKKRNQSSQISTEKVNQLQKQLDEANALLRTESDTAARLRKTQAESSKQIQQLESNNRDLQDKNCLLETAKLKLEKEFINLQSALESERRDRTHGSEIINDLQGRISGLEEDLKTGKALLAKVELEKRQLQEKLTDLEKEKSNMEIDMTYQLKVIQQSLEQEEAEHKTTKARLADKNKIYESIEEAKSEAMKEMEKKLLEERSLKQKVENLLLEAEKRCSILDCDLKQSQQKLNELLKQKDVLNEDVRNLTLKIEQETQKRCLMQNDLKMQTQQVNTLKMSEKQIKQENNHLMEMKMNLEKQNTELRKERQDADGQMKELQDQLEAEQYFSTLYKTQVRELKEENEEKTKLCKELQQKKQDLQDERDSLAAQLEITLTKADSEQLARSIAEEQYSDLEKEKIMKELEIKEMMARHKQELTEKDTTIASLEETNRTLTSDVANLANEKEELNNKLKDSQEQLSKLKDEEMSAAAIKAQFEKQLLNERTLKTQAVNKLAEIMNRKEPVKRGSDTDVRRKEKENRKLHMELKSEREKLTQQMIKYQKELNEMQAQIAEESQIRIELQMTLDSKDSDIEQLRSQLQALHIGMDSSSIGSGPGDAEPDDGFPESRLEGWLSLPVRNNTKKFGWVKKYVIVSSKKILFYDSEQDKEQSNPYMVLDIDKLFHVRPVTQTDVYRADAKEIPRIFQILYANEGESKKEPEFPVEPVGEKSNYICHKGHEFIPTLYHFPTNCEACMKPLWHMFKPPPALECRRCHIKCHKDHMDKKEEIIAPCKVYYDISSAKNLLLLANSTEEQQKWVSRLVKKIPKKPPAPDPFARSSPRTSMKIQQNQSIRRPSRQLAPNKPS
UniProt O88307, residues 82-2215: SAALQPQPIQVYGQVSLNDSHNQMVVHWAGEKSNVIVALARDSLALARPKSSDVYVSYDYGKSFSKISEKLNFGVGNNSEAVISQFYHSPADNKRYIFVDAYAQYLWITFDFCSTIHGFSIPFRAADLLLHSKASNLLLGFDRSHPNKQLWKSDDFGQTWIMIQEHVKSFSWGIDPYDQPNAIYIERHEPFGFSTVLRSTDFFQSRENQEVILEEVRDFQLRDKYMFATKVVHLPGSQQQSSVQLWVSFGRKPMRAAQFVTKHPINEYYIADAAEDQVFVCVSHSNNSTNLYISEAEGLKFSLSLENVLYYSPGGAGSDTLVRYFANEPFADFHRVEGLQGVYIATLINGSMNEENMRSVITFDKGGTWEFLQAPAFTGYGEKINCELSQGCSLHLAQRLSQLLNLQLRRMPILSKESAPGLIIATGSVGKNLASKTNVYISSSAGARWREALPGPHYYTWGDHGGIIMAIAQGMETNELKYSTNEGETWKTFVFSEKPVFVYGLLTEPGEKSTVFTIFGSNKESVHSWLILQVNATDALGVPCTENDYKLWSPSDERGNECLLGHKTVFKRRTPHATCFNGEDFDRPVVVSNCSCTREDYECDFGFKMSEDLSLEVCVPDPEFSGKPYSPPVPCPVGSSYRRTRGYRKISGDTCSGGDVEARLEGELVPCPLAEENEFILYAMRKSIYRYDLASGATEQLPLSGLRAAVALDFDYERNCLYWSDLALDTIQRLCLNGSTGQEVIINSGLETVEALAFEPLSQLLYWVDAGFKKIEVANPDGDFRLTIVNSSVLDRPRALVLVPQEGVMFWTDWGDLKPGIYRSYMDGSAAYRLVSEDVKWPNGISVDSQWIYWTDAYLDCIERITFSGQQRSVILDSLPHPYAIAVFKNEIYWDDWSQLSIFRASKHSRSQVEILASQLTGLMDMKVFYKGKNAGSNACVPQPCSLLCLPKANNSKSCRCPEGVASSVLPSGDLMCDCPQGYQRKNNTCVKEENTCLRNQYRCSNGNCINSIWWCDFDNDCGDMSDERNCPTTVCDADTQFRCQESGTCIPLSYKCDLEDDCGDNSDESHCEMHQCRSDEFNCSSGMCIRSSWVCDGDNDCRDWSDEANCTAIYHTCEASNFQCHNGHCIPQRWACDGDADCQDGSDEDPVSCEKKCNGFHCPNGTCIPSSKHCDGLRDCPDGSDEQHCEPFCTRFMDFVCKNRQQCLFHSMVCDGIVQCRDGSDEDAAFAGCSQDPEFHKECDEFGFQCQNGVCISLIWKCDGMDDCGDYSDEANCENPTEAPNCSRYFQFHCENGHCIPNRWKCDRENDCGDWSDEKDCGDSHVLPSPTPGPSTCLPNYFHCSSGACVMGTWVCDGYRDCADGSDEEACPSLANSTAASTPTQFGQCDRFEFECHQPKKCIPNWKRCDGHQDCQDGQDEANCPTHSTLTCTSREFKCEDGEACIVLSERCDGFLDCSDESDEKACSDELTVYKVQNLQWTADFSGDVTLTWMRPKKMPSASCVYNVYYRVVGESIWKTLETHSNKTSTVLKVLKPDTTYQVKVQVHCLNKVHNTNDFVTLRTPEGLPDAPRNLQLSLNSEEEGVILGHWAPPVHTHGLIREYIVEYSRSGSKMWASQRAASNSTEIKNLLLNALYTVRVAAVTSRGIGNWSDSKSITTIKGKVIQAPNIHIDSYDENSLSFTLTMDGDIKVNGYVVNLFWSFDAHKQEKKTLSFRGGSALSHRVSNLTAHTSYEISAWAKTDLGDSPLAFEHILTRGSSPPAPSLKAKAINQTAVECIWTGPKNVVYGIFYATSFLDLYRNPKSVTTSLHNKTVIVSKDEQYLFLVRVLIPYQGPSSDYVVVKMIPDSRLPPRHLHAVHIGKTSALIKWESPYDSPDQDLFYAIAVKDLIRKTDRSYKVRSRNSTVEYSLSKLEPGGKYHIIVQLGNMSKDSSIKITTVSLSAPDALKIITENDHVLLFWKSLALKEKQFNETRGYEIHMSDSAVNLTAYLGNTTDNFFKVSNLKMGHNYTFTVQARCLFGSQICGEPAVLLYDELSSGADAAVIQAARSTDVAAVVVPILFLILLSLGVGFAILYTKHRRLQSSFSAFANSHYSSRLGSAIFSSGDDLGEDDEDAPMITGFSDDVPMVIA

Experiments:
[1] = target: rho activated coiled coil protein kinase 2 (ROCK2) (mouse (endogenous in MEFs)) (UniProt P70336); test: co-IP; 300 ug wild type MEF lysate in RIPA buffer; 2 ug anti-SorL1 or anti-ROCK2 antibody or control IgG on protein A/G plus agarose beads; immunoblot for the other protein; endogenous proteins
[2] = target: SorL1 (mouse (endogenous in MEFs)) (UniProt O88307); test: as above

binding [1] | binding [2] | Substance
binds | – | SorL1 (from UniProt O88307 82-2215)
– | binds | rho activated coiled coil protein kinase 2 (ROCK2) (from UniProt P70336 1-1388) (enzyme)
